The nature of this assay: qHTS Assay for Modulators of Lamin A Splicing. The settings on record: HeLa LMNA splicing GFP/RFP minigene ratio, 48 h. Summed up: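 S3 HeLa cells stably expressing lamin A-EGFP splicing minigene plus DsRed2, 600 cells/well, 48 h compound exposure at 37C. Laser-scanning cytometry; analysed as GFP (500-530 nm)/RFP (575-640 nm) total intensity ratio; 0.5% DMSO vehicle.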
Setting [1] is: measured here: RFP viability control channel.
Setting [2] is: measured here: GFP splicing reporter channel.

“And” between values parts separate entries of the source, which are not always exact repeats. Equal values may be shown once. Some of the results follow. Shown are side measurements of this screen, not its main read-out; they come without a call. Most of these compounds were active or inconclusive in the main read-out, so they are no random draw. Words in brackets tell the shape of the fitted curve; partial curves, single points and poor fits give uncertain potencies.

For orientation: AC50 means the concentration at which the activity in the assay is half-maximal. With `O=C(O)CC(NC(=O)Cc1ccccc1)c1cc([N+](=O)[O-])ccc1Cl` (configuration not stated), the AC50 under setting [1] was 0.00316 µM [falling, full curve, poor fit]. `O=C(CSc1nnc(Nc2ccccc2F)s1)c1cc2ccccc2o1`: the AC50 is 35.5 µM [rising, single point] under setting [2] and 35.5 µM [rising, single point] under setting [1]. For the compound `O=C(Cc1csc2nc(-c3ccc(F)cc3)cn12)NCc1ccccc1`, the AC50 under setting [2] is 35.5 µM [falling, single point]. For `O=C(CCCc1nc(-c2ccc(Cl)cc2)no1)Nc1cccnc1`, the AC50 is, setting by setting: under setting [2], 3.55 µM [rising, full curve]; under setting [1], 7.08 µM [rising, full curve]. For the compound `C=CCc1ccccc1OCC(O)CN1CCN(c2ccccc2OC)CC1` (configuration not stated), the AC50 reads like this: under setting [2], 0.316 µM [rising, partial curve, poor fit]; under setting [1], 7.08 µM [rising, partial curve]. For `CN(C)c1ccc(C(=O)Nc2nnc(-c3ccc(Cl)cc3)o2)cc1`, the AC50 under setting [1] is 7.08 µM [rising, partial curve].

Regarding `O=C(NC1CCCCCC1)c1cc(S(=O)(=O)N2CCOCC2)ccc1N1CCCCC1`, the AC50 is 14.1 µM [rising, single point] under setting [2] and 22.4 µM [rising, single point] under setting [1].

With `COc1ccc(Br)cc1-c1nc(CCl)cs1`, the AC50 under setting [1] was 10 µM [falling, partial curve, poor fit]. Consider `CCOC(=O)C(=Cc1ccc(-c2ccsc2C(=O)OC)o1)C(=O)OCC`, for which the AC50 by setting is: under setting [2], 20 µM [falling, partial curve, poor fit]; under setting [1], 31.6 µM [falling, partial curve, poor fit].

On to `CC(=O)c1cccc(NC(=O)CSc2nc3ccccc3nc2Cc2ccc(F)cc2)c1`, for which the AC50 under setting [2] was 0.126 µM [rising, full curve]. `Cc1nc2ccc(NS(=O)(=O)c3ccc(C)c(C)c3)cc2s1`: the AC50 under setting [2] was 2.51 µM [rising, full curve] and the AC50 under setting [1] was 2.82 µM [rising, full curve]. Take `CCS(=O)(=O)N1CCC(C(=O)N2CCN(Cc3ccccc3)CC2)CC1`: the AC50 under setting [2] is 0.0126 µM [falling, full curve]. Take `CC1=C(c2ccc(C(C)C)cc2)S(=O)(=O)N=C1N1CCC(C(=O)NCCc2ccco2)CC1`: the AC50 reads like this: under setting [2], 0.00891 µM [falling, full curve, poor fit]; under setting [1], 0.0112 µM [falling, full curve, poor fit].

As for `CC(=O)O[C@](C)(CCC=C(C)C)C1CC=C(C)CC1` (some centres not stated), the AC50 under setting [1] is 20 µM [falling, single point]. As for `CCOc1cc(/C=C\[N+](=O)[O-])ccc1OCC(=O)Nc1ccccc1C`, the AC50 is 3.55 µM [falling, full curve] under setting [2] and 3.55 µM [falling, full curve] under setting [1].

With `S=C(Nc1ccccc1Cl)N1CCN(Cc2ccccc2)CC1`, the AC50 was 35.5 µM [rising, single point] under setting [2] and 31.6 µM [rising, single point] under setting [1]. For `Cc1ccc(C(=O)Nc2c(C)nc3ccccn3c2=O)cc1C`, under setting [1], the AC50 is 0.316 µM [rising, full curve, poor fit]. `O=C(O)CCCN1C(=O)C2C3CCC(O3)C2C1=O` (configuration not stated): the AC50 was 5.62 µM [falling, single point] under setting [2] and 0.0355 µM [rising, full curve, poor fit] under setting [1].

Turning to `CCN(c1cccc(C)c1)S(=O)(=O)c1cccc(C(=O)O)c1`, under setting [2], the AC50 was 0.794 µM [rising, full curve, poor fit]. As for `CO/N=C(/CS(=O)Cc1ccccc1Cl)c1ccc(Cl)cc1Cl` (configuration not stated), the AC50 was 2.51 µM [rising, single point] under setting [2] and 17.8 µM [rising, single point] under setting [1]. On to `CCn1c2ccccc2c2nnc(SCCCn3c(=O)[nH]c4ccccc43)nc21`, for which the AC50 under setting [1] is 11.2 µM [rising, partial curve]. Same read-out and setting: in the case of `O=C(NC(=S)N1CCN(c2ccc(C(F)(F)F)cc2[N+](=O)[O-])CC1)c1cccs1` it was 22.4 µM [rising, single point].

With `CC(C)(C)c1ccc(C(=O)NCC(c2ccc(Cl)cc2)N2CCOCC2)cc1` (configuration not stated), the AC50 under setting [2] was 12.6 µM [falling, partial curve, poor fit]. As to `C[C@@H](C(=O)Nc1ccc2ccccc2c1)[C@@H]1C[C@@]1(C)[C@@H](NC(=O)c1cnccn1)c1ccccc1`, under setting [1], the AC50 is 4.47 µM [rising, full curve].

In the case of `C[C@]1(C(=O)NCCCNc2ncc(C(F)(F)F)cc2Cl)C=C[C@@H](Cc2ccccc2)N1C(=O)c1ccccc1`, under setting [1], the AC50 was 15.8 µM [rising, single point].

For the compound `Cc1ccc2c(CC(=O)NNC(=O)c3ccccc3)coc2c1`, the AC50 under setting [2] was 0.126 µM [rising, full curve, poor fit].

As for `C=CCN(c1ccccc1C(=O)NCC(=O)O)S(=O)(=O)c1ccc(C)cc1`, the AC50 under setting [1] was 0.398 µM [falling, full curve, poor fit].

In the case of `O=S(=O)(c1ccc2ccccc2c1)N1CCN(C(=S)Nc2ccc(F)cc2)CC1`, the AC50 runs as follows: under setting [2], 12.6 µM [rising, single point]; under setting [1], 17.8 µM [rising, partial curve]. `COCCN(Cc1cc2cc(C)ccc2n2nnnc12)C(=S)Nc1cccc(C)c1`: under setting [1], the AC50 is 0.00891 µM [falling, full curve, poor fit]. The same measure, in the same setting: the value for `CCCCN1C(=O)c2ccc(C(=O)Nc3ccc(S(=O)(=O)N(C)C)cc3)cc2C1=O` was 22.4 µM [rising, single point]. `CC(C)NC[C@H](O)c1ccc(O)c(O)c1`: the AC50 is 0.02 µM [falling, full curve, poor fit] under setting [2]; 8.91 µM [rising, partial curve, poor fit] and 3.16 µM [falling, single point] and 2.24 nM [falling, full curve, poor fit] under setting [1]. Take `Cc1ccccc1OCC(=O)NCC(c1ccc(Cl)cc1)N1CCCCC1` (configuration not stated): the AC50 under setting [2] was 35.5 µM [falling, single point] and the AC50 under setting [1] was 5.62 µM [rising, partial curve, poor fit].

Turning to `C(#CCN1CCC(Cc2ccccc2)CC1)COCCOCc1ccccc1`, the AC50 under setting [1] is 22.4 µM [rising, partial curve, poor fit].

As for `CC(=O)OCC(=O)[C@@]12OC(C)(C)O[C@@H]1C[C@H]1[C@H]3C[C@H](F)C4=CC(=O)C=C[C@@]4(C)[C@]3(F)[C@H](O)C[C@@]12C`, the AC50 under setting [1] is 0.00224 µM [rising, full curve, poor fit]. For `COc1ccc(C)cc1NC(=O)Nc1cccc(OCc2cc(=O)n3ccc(C)cc3n2)c1`, under setting [2], the AC50 is 3.98 µM [falling, partial curve, poor fit]. On to `COc1ccc(NC(=O)c2cccs2)cc1NC(=O)c1ccco1`, for which, under setting [1], the AC50 was 31.6 µM [rising, single point]. Still for that read-out and setting: the value for `Cc1ccc(CN2CCc3c(OCc4ccc(F)cc4)cccc3C2=O)cc1` was 2.82 µM [rising, full curve]. For `CC(C)Cc1cc(CN2CCCC(CO)(Cc3cccc(Cl)c3)C2)[nH]n1` (configuration not stated), under setting [2], the AC50 is 28.2 µM [falling, single point]. Still for that read-out and setting: in the case of `COc1ccc(N2CCN(S(=O)(=O)c3ccc(-c4ccno4)cc3OC)CC2)cc1` it was 0.316 µM [falling, full curve, poor fit]. Turning to `CC(=O)Nc1sc2c(c1CN1CCN(c3ccc(F)cc3)CC1)CCCC2`, the AC50 under setting [1] was 17.8 µM [rising, single point]. With `COc1ccc(CNc2cc(-c3ccccc3Cl)ncn2)c(OC)c1`, the AC50 under setting [2] was 12.6 µM [falling, partial curve]. In the case of `CC(NC(=O)/C=C/c1ccccc1)c1ccccc1` (configuration not stated), the AC50 under setting [2] was 0.0708 µM [rising, partial curve, poor fit]. As to `CC12CCC(C(=O)Nc3nc4ccccc4s3)(OC1=O)C2(C)C` (configuration not stated), the AC50 under setting [1] was 14.1 µM [falling, partial curve, poor fit]. As for `Cc1ccc2nc(-c3ccncc3)cc(-c3ccccc3)c2c1`, the AC50 by setting is: under setting [2], 17.8 µM [falling, single point]; under setting [1], 17.8 µM [falling, partial curve]. On to `CC(C)(C)NC(=O)c1cnn2c1NC(c1ccc(F)cc1)CC2C(F)(F)F` (configuration not stated), for which the AC50 under setting [1] is 0.0398 µM [falling, full curve, poor fit]. Regarding `CC(O)CNc1nc2c(c(=O)n(C)c(=O)n2C)n1Cc1cccc(C(F)(F)F)c1` (configuration not stated), under setting [1], the AC50 is 12.6 µM [rising, partial curve]. Regarding `COc1ccc(-n2c(-c3ccccc3)nnc2-c2ccc(Cl)cc2)cc1`, the AC50 under setting [2] was 0.158 µM [rising, full curve, poor fit]. For `COc1ccc(NS(=O)(=O)c2ccc(NC(=S)NC(=O)c3ccc(Br)cc3)cc2)nn1`, the AC50 under setting [1] was 31.6 µM [rising, single point]. The same measure, in the same setting: in the case of `Cc1cc(Br)ccc1NC(=O)C(C)c1ccc([N+](=O)[O-])cc1` (configuration not stated) it was 11.2 µM [rising, partial curve, poor fit]; in that of `Cc1coc2c1c(C)cc1oc(=O)c(Cc3ccccc3)c(C)c12`, 2.82 µM [falling, partial curve, poor fit].

As to `Cc1ccc2nc(SCC(=O)Nc3ccc4sc(C)nc4c3)c(C#N)cc2c1`, the AC50 under setting [1] was 2.24 µM [rising, full curve, poor fit].

For `C=CCN(CC=C)c1ccc(N2C(=O)C3CCCCC3C2=O)cc1[N+](=O)[O-]` (configuration not stated), under setting [1], the AC50 was 35.5 µM [falling, single point].

For the compound `Cc1cc(Cl)c(S(=O)(=O)NC2CCCC2)cc1OCC(=O)NC1CCCCC1`, the AC50 runs as follows: under setting [2], 3.98 µM [rising, full curve]; under setting [1], 4.47 µM [rising, full curve].

On to `O=C(COC(=O)CNC(=O)c1ccc2c(c1)OCO2)Nc1ncc(Cl)cc1Cl`, for which the AC50 under setting [1] was 20 µM [rising, single point]. Regarding `O=C(Nc1ccc(-c2nc3ccccc3o2)cc1)c1ccc(N2C(=O)C3C4C=CC(C4)C3C2=O)cc1` (configuration not stated), the concentration at half-maximal activity (AC50) reads like this: under setting [2], 22.4 µM [rising, partial curve]; under setting [1], 10 µM [rising, partial curve].
